Measurements taken from doi:10.1101/2025.11.24.690135.

By UniProt entry, the sequences of proteins in these tests, tags left out. Where a name states a change or a piece, a line headed by the entry shows the natural chain unless it says otherwise.
UniProt P18848, whole entry, stated change not applied: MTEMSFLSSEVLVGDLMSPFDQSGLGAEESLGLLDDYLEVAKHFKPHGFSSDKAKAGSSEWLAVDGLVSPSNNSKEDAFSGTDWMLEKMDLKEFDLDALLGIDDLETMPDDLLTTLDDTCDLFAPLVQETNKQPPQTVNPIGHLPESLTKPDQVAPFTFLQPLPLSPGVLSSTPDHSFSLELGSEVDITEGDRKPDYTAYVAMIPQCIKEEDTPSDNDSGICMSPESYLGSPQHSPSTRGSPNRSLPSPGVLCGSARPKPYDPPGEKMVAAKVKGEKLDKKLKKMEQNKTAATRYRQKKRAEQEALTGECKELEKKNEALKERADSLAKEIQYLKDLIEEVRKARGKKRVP

Molecular target: activating transcription factor 4, endogenous (human (endogenous in iPSC-RPE)) (UniProt P18848)
Assay: affinity purification with mass spectrometry

HSP90AA1, endogenous (from UniProt P07900 1-732)
binding: binds

Results are given in words; binding and its absence hold for the method and conditions named. In cells and extracts the contact can be indirect. Here binding means that the protein was enriched with, or labelled near, the bait; the list need not be complete.
